From publication PMC10803725
Results are given in words; binding and its absence hold for the method and conditions named. Binding seen in cells or lysates may run through a third protein. These calls come from enrichment with a bait or labelling near it, and not all partners need be listed.

Biological target: OsBAG6-2 × FLAG (rice (Oryza sativa, Kitaake))
Test: affinity purification with mass spectrometry; total protein of wild-type Kitaake and two independent CsVpro:OsBAG6-2 × FLAG lines in IP buffer (2 mM DTT, 150 mM NaCl, 100 mM Tris-HCl pH 7.5, 5 mM EGTA, 0.5% Triton X-100, 5 mM EDTA) on anti-FLAG M2 magnetic beads, 4 °C, 3 h

B1: GLO1 (enzyme, UniProt Q10CE4 1-369)
chain: MGEITNVMEYQAIAKQKLPKMIYDYYASGAEDEWTLKENREAFSRILFRPRILIDVSKIDMSATVLGFKISMPIMIAPSAMQKMAHPDGEYATARAASAAGTIMTLSSWATSSVEEVASTGPGIRFFQLYVYKDRNVVEQLVRRAERAGFKAIALTVDTPRLGRREADIKNRFVLPPYLTLKNFEGLDLAEMDKSNDSGLASYVAGQIDRTLSWKDVKWLQSITSLPILVKGVITAEDARLAVHSGAAGIIVSNHGARQLDYVPATISALEEVVTAAAGRIPVYLDGGVRRGTDVFKALALGAAGVFIGRPVVFALAAEGEAGVRNVLRMMREEFELTMALSGCTSLADITRAHIYTDADRLARPFPRL
binding: binds

B2: OsPhyB (receptor, UniProt Q10MG9 1-1171)
chain: MASGSRATPTRSPSSARPAAPRHQHHHSQSSGGSTSRAGGGGGGGGGGGGGAAAAESVSKAVAQYTLDARLHAVFEQSGASGRSFDYTQSLRASPTPSSEQQIAAYLSRIQRGGHIQPFGCTLAVADDSSFRLLAYSENTADLLDLSPHHSVPSLDSSAVPPPVSLGADARLLFAPSSAVLLERAFAAREISLLNPLWIHSRVSSKPFYAILHRIDVGVVIDLEPARTEDPALSIAGAVQSQKLAVRAISRLQALPGGDVKLLCDTVVEYVRELTGYDRVMVYRFHEDEHGEVVAESRRNNLEPYIGLHYPATDIPQASRFLFRQNRVRMIADCHAAPVRVIQDPALTQPLCLVGSTLRSPHGCHAQYMANMGSIASLVMAVIISSGGDDDHNISRGSIPSAMKLWGLVVCHHTSPRCIPFPLRYACEFLMQAFGLQLNMELQLAHQLSEKHILRTQTLLCDMLLRDSPTGIVTQSPSIMDLVKCDGAALYYHGKYYPLGVTPTEVQIKDIIEWLTMCHGDSTGLSTDSLADAGYPGAAALGDAVSGMAVAYITPSDYLFWFRSHTAKEIKWGGAKHHPEDKDDGQRMHPRSSFKAFLEVVKSRSLPWENAEMDAIHSLQLILRDSFRDSAEGTSNSKAIVNGQVQLGELELRGIDELSSVAREMVRLIETATVPIFAVDTDGCINGWNAKVAELTGLSVEEAMGKSLVNDLIFKESEETVNKLLSRALRGDEDKNVEIKLKTFGPEQSKGPIFVIVNACSSRDYTKNIVGVCFVGQDVTGQKVVMDKFINIQGDYKAIVHNPNPLIPPIFASDENTCCSEWNTAMEKLTGWSRGEVVGKLLVGEVFGNCCRLKGPDALTKFMIVLHNAIGGQDCEKFPFSFFDKNGKYVQALLTANTRSRMDGEAIGAFCFLQIASPELQQAFEIQRHHEKKCYARMKELAYIYQEIKNPLNGIRFTNSLLEMTDLKDDQRQFLETSTACEKQMSKIVKDASLQSIEDGSLVLEKGEFSLGSVMNAVVSQVMIQLRERDLQLIRDIPDEIKEASAYGDQYRIQQVLCDFLLSMVRFAPAENGWVEIQVRPNIKQNSDGTDTMLFLFRFACPGEGLPPEIVQDMFSNSRWTTQEGIGLSICRKILKLMGGEVQYIRESERSFFHIVLELPQPQQAASRGTS
binding: binds
